In the supplement of paper PMC10849652:
This is one part of the list.

Chains of the proteins cited; added tags and fusions are not shown. Lines headed by an entry give the natural chain unless they say otherwise; changes in a name come on top.
UniProt O00534: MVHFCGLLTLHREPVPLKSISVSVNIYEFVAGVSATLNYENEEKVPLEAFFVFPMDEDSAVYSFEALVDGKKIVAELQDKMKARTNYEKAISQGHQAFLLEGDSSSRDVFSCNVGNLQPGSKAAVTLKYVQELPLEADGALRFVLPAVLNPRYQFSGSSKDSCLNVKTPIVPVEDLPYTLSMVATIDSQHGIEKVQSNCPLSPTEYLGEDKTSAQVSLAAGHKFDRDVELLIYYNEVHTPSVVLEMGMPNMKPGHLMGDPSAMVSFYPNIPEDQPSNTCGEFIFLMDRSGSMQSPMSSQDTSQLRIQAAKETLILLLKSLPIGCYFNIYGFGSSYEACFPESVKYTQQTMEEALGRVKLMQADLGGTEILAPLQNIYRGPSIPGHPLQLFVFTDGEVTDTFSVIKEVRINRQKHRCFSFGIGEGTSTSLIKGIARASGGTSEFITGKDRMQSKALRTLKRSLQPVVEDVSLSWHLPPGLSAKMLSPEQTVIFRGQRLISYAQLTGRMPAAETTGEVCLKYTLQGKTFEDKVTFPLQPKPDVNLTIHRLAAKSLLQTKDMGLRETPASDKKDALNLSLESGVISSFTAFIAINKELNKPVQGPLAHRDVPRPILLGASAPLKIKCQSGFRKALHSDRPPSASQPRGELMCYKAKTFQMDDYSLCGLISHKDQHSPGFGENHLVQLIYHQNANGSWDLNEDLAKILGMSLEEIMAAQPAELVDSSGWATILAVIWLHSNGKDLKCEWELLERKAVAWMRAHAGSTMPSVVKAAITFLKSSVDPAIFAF
UniProt Q9BUR4: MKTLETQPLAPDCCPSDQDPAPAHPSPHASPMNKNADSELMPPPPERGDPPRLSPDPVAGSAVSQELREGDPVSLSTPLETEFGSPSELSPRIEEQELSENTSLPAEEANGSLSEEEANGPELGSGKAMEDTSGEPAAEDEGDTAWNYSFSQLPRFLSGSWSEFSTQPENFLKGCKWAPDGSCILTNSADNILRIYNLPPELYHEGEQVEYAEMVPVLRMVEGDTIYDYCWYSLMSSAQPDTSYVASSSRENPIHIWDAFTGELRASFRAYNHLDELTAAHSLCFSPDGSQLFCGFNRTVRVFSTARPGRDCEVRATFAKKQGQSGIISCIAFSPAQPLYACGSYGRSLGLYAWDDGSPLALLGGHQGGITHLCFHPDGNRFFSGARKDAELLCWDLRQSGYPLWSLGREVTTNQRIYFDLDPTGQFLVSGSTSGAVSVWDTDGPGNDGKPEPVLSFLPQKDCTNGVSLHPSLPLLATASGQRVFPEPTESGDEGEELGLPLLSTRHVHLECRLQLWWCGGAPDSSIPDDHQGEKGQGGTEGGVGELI
UniProt Q5JSH3: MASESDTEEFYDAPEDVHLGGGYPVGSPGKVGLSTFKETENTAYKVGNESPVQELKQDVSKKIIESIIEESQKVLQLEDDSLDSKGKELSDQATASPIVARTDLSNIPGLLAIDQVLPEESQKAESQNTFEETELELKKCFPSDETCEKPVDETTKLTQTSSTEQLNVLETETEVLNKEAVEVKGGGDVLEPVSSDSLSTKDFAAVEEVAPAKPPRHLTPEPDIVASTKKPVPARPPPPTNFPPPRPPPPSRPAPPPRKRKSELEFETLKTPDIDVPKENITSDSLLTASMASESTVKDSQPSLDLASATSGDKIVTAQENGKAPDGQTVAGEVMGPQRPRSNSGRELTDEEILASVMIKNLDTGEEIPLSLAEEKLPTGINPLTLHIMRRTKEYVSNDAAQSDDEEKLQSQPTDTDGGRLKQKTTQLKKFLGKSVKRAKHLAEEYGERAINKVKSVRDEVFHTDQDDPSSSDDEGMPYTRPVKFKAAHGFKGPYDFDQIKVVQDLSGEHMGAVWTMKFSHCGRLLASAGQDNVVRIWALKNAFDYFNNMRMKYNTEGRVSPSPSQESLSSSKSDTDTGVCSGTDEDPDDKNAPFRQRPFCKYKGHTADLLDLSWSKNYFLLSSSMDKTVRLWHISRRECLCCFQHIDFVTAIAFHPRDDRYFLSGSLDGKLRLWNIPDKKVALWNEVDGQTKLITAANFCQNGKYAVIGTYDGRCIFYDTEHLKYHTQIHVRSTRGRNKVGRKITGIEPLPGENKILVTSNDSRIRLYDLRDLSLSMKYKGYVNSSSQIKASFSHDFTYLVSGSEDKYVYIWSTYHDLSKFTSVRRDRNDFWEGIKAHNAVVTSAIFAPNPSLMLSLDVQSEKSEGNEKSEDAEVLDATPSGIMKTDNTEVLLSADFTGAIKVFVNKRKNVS
UniProt Q92558: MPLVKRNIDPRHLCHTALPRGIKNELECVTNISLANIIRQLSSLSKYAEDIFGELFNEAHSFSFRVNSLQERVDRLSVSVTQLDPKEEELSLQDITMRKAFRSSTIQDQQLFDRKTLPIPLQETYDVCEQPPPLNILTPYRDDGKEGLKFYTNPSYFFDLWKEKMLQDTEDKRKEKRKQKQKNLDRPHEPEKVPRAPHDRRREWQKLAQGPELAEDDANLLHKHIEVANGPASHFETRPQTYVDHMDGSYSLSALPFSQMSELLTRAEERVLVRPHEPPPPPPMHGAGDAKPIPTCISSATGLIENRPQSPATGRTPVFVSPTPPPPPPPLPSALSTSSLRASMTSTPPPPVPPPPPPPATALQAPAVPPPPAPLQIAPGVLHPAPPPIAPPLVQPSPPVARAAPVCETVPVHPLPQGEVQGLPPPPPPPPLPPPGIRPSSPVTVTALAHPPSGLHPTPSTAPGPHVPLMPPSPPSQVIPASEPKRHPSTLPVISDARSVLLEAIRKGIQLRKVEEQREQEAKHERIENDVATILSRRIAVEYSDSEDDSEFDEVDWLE
UniProt Q9H9H4: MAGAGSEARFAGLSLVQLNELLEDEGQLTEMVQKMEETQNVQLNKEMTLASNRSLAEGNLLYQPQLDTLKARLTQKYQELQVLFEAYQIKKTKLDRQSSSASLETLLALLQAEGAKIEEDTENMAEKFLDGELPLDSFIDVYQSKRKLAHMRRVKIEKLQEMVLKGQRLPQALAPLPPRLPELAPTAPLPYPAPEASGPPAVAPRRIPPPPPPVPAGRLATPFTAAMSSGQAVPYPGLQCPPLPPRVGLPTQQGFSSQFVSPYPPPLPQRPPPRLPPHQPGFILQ
UniProt Q8IV63: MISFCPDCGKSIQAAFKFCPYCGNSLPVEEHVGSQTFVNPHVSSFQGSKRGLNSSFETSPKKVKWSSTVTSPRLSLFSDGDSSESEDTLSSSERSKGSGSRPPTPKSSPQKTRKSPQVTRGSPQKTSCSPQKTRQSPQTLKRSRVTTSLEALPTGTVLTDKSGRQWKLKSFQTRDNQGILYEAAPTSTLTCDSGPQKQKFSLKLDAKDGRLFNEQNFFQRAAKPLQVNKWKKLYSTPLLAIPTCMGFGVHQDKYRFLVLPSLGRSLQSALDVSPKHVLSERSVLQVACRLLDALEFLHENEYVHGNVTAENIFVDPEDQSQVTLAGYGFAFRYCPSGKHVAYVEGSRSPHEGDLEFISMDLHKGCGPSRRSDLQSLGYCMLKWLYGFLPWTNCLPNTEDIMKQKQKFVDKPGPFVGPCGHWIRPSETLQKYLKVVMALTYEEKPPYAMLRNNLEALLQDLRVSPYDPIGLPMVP
UniProt Q9BQA1, whole entry, looked up: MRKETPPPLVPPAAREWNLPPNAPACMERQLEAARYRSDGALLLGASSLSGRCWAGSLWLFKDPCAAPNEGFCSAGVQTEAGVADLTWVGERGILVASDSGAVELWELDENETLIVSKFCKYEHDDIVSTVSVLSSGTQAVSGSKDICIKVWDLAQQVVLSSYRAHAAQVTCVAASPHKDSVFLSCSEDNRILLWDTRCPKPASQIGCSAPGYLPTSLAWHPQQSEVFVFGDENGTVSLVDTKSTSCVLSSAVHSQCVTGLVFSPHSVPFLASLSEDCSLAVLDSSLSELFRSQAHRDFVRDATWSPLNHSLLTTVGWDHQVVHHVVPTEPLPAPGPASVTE
UniProt Q9NRW7: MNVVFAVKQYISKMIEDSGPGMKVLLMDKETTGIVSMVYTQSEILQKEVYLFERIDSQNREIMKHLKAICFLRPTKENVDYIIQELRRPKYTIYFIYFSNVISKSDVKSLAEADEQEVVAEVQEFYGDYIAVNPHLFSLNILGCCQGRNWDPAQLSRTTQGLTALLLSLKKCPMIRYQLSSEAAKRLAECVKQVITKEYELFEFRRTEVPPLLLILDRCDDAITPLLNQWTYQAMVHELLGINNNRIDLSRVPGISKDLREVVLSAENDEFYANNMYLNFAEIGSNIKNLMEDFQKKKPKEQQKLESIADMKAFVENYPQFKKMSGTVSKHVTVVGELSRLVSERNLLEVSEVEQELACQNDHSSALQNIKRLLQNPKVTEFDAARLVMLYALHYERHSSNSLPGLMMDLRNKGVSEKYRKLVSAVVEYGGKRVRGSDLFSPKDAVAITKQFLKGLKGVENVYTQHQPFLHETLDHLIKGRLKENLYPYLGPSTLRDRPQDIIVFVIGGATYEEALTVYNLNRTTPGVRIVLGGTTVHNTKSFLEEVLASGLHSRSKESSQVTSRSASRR
UniProt Q6RFH5: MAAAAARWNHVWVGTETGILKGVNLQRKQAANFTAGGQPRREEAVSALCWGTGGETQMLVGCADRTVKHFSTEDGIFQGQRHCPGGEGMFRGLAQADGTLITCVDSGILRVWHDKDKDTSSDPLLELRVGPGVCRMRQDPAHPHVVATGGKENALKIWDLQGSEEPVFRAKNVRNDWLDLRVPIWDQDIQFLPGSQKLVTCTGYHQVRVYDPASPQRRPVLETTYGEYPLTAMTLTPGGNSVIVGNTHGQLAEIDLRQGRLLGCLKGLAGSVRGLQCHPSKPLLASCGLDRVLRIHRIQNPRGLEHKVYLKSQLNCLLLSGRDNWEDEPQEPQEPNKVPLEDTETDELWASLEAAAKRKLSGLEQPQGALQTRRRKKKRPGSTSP
UniProt P08670, whole entry, looked up: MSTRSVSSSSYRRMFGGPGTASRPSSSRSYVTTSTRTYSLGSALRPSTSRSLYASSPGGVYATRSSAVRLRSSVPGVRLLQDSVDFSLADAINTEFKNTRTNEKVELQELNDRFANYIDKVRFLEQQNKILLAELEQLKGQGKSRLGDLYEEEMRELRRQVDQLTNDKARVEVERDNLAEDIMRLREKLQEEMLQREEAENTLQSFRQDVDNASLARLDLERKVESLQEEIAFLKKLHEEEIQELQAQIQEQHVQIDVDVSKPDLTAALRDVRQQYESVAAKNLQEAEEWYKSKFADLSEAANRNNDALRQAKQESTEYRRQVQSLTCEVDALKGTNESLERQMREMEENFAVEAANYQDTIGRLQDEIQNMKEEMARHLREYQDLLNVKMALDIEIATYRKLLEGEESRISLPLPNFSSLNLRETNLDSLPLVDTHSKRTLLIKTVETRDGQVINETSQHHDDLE
UniProt Q96MX6, whole entry, looked up: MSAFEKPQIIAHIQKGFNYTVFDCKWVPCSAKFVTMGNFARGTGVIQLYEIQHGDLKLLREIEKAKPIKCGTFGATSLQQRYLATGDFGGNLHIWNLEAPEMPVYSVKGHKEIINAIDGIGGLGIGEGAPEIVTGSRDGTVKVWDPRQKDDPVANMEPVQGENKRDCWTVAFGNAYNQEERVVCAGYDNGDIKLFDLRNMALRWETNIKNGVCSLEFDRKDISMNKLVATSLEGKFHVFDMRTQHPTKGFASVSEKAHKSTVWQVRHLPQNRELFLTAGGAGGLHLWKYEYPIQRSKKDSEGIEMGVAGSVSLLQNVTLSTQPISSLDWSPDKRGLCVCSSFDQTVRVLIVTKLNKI
UniProt Q96S55: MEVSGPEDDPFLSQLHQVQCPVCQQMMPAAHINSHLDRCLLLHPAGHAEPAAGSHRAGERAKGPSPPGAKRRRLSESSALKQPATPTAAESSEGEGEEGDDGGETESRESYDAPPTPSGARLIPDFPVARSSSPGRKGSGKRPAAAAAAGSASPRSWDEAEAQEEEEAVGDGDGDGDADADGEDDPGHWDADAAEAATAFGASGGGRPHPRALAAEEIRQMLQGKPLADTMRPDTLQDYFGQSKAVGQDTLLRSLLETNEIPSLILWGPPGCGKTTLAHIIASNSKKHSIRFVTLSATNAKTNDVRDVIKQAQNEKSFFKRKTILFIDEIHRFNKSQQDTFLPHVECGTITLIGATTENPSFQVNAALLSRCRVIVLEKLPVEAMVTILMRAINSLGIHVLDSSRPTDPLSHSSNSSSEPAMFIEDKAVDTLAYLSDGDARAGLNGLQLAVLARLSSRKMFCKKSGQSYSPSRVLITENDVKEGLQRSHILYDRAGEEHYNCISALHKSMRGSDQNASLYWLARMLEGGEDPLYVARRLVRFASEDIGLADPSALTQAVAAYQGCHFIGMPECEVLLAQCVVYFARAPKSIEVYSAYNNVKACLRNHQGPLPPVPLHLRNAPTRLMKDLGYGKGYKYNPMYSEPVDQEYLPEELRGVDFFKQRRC

Compound: CC(C)(C)Cn1c(N)nc2ccc(-c3[nH]c(C(C)(C)C)nc3-c3ccc(F)cc3)nc21 [ralimetinib]
Assay: log2 fold change, soluble protein after heating vs DMSO (PISA); higher = thermal stabilisation; K562 cells, 10 uM, 30 min; active = over 0.2 and 3.5 SD of the protein, either way, in both replicates (recomputed)
How it was run: (§1)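 K562 cells at 2×10^6 cells/mL were exposed to 10 μM compound for 30 min, then aliquots were heated for 3 min across 48°C-58°C, pooled, and extracted in PBS containing 0.5% NP-40 at 4°C. The supernatant after 21,000xg for 90 min was taken as soluble protein and measured by TMTpro 16plex LC-MS/MS with channel sums equalised. Thermal stability is reported relative to control samples, with values from duplicates. Fold changes are given on a log2 scale.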

log2 fold change, inactive:
WDR45B (UniProt Q5MNZ6) -0.082
VWA5A (UniProt O00534) 0.019
VPS26B (UniProt Q4G0F5) -0.022
VPS41 (UniProt P49754) 0.052
WRAP53 (UniProt Q9BUR4) 0.026
WDR36 (UniProt Q8NI36) 0.095
WIPF2 (UniProt Q8TF74) -0.073
WDR44 (UniProt Q5JSH3) -0.067
VEZT (UniProt Q9HBM0) -0.009
VPS36 (UniProt Q86VN1) -0.028
WASF1 (UniProt Q92558) -0.109
VPS37B (UniProt Q9H9H4) 0.119
VRK3 (UniProt Q8IV63) 0.082
WDR59 (UniProt Q6PJI9) 0.001
WDR77 (UniProt Q9BQA1) 0.013
WIZ (UniProt O95785) 0.053
WDR12 (UniProt Q9GZL7) -0.059
VPS45 (UniProt Q9NRW7) -0.047
WDR3 (UniProt Q9UNX4) 0.273
VPS13A (UniProt Q96RL7) -0.018
WDR74 (UniProt Q6RFH5) 0.083
WDR6 (UniProt Q9NNW5) 0.048
VIM (UniProt P08670) 0.217
WDFY1 (UniProt Q8IWB7) -0.022
WDR92 (UniProt Q96MX6) 0.037
WDR26, A0A499FIZ0 -0.021
WDR73 (UniProt Q6P4I2) -0.001
VKORC1L1, A0A3B3ISV4 -0.173
VMP1 (UniProt Q96GC9) -0.033
VPS29 isoform 2 (UniProt Q9UBQ0) -0.061
WDR5 (UniProt P61964) 0.073
WDR45 (UniProt Q9Y484) -0.071
WRNIP1 (UniProt Q96S55) 0.007
WARS (UniProt P23381) 0.039

Compound: CC(C)(O)CC(=O)NCCn1ccc2ncnc(Nc3ccc(Oc4cccc(C(F)(F)F)c4)c(Cl)c3)c21
Assay: as above
How it was run: as §1

log2 fold change, inactive:
WDR45B (UniProt Q5MNZ6) 0.047
VWA5A (UniProt O00534) -0.015
VPS26B (UniProt Q4G0F5) 0.001
VPS41 (UniProt P49754) 0.019
WRAP53 (UniProt Q9BUR4) 0.028
WDR36 (UniProt Q8NI36) 0.071
WIPF2 (UniProt Q8TF74) 0.009
WDR44 (UniProt Q5JSH3) 0.002
VEZT (UniProt Q9HBM0) 0.002
VPS36 (UniProt Q86VN1) -0.006
WASF1 (UniProt Q92558) -0.07
VPS37B (UniProt Q9H9H4) -0.075
VRK3 (UniProt Q8IV63) -0.065
WDR59 (UniProt Q6PJI9) 0.127
WDR77 (UniProt Q9BQA1) -0.053
WIZ (UniProt O95785) -0.081
WDR12 (UniProt Q9GZL7) 0.004
VPS45 (UniProt Q9NRW7) -0.097
WDR3 (UniProt Q9UNX4) 0.084
VPS13A (UniProt Q96RL7) -0.053
WDR74 (UniProt Q6RFH5) 0.016
WDR6 (UniProt Q9NNW5) -0.012
VIM (UniProt P08670) 0.399
WDFY1 (UniProt Q8IWB7) -0.01
WDR92 (UniProt Q96MX6) -0.111
WDR26, A0A499FIZ0 -0.031
WDR73 (UniProt Q6P4I2) 0
VKORC1L1, A0A3B3ISV4 -0.049
VMP1 (UniProt Q96GC9) -0.089
VPS29 isoform 2 (UniProt Q9UBQ0) -0.011
WDR5 (UniProt P61964) 0.025
WDR45 (UniProt Q9Y484) -0.049
WRNIP1 (UniProt Q96S55) -0.409
WARS (UniProt P23381) 0.001

Compound: CC(C)C1=C2N=C(C=C(N2N=C1)NCC3=CC=CC=C3)NCCCCCCN
Assay: as above
How it was run: as §1

log2 fold change, active:
VPS41 (UniProt P49754) -0.383

log2 fold change, inactive:
WDR45B (UniProt Q5MNZ6) 0.034
VWA5A (UniProt O00534) -0.018
VPS26B (UniProt Q4G0F5) 0.058
WRAP53 (UniProt Q9BUR4) 0.017
WDR36 (UniProt Q8NI36) 0.202
WIPF2 (UniProt Q8TF74) 0.048
WDR44 (UniProt Q5JSH3) 0.053
VEZT (UniProt Q9HBM0) -0.201
VPS36 (UniProt Q86VN1) -0.027
WASF1 (UniProt Q92558) -0.037
VPS37B (UniProt Q9H9H4) -0.097
VRK3 (UniProt Q8IV63) -0.145
WDR59 (UniProt Q6PJI9) 0.085
WDR77 (UniProt Q9BQA1) -0.025
WIZ (UniProt O95785) -0.047
WDR12 (UniProt Q9GZL7) 0.004
VPS45 (UniProt Q9NRW7) -0.109
WDR3 (UniProt Q9UNX4) -0.006
VPS13A (UniProt Q96RL7) -0.029
WDR74 (UniProt Q6RFH5) 0.015
WDR6 (UniProt Q9NNW5) -0.095
VIM (UniProt P08670) -0.029
WDFY1 (UniProt Q8IWB7) 0.039
WDR92 (UniProt Q96MX6) -0.026
WDR26, A0A499FIZ0 -0.021
WDR73 (UniProt Q6P4I2) 0.024
VKORC1L1, A0A3B3ISV4 0.047
VMP1 (UniProt Q96GC9) 0.027
VPS29 isoform 2 (UniProt Q9UBQ0) -0.005
WDR5 (UniProt P61964) 0.061
WDR45 (UniProt Q9Y484) -0.048
WRNIP1 (UniProt Q96S55) -0.388
WARS (UniProt P23381) 0.068
